# The supplement of paper PMC3334620
# Over roughly 33,000 sequences, “E-score (-0.5 to 0.5)” has its median near -0.015; the highest 2% begin near 0.3. The list shows a part of the results.
# Molecular target: T1, Abf1 (UniProt P14164)
# T1 sequence: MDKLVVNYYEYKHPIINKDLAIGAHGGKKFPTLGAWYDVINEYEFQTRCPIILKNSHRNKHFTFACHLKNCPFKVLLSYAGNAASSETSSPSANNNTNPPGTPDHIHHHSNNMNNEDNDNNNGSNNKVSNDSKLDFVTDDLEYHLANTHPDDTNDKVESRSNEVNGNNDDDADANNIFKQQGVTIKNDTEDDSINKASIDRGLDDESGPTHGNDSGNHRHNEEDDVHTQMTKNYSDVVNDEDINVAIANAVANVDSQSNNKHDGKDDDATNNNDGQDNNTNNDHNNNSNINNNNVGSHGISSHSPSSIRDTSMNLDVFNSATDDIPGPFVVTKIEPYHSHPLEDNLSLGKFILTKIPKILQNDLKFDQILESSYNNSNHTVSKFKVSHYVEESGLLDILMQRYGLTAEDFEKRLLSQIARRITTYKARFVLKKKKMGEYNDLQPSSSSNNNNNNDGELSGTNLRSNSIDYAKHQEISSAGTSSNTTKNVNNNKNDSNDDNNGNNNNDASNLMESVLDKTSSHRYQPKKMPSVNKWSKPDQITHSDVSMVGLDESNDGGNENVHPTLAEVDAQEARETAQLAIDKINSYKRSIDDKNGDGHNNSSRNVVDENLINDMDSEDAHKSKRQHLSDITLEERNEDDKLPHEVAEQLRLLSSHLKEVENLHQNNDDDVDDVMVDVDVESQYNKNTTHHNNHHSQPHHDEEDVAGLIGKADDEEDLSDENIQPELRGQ
# Test: PBM E-score (8-mer binding enrichment) (E-score (-0.5 to 0.5)); higher = stronger / more preferred TF binding
# Details: protein concentration: 200 nM; construct: GST-full length
# In short: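 Universal all-10-mer Agilent arrays, double-stranded by primer extension on fresh or once-stripped slides, were probed with about 100-200 nM GST-tagged yeast transcription factors made by PURExpress. Fluorescent anti-GST detected bound protein, and masliner normalised the scans. E-scores from the Universal PBM Analysis Suite were given to each ungapped eight-base word pooled with its reverse complement.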
row,Sequence,PBM E-score
1,CGTCAGTC,0.117
2,GCTTGCTA,-0.179
3,AGTTGAGA,-0.014
4,CTGATAAA,0.112
5,ACCGAGTC,-0.224
6,ACCGACAG,-0.269
7,CCCGACCC,-0.197
8,ACTATATA,0.237
9,CATGCTAC,-0.221
10,GATAGCCA,-0.0722
11,AGGCCCAG,-0.314
12,TAACAGTA,0.0116
13,CTCGAACC,-0.235
14,CACAGGAG,-0.0222
15,CTGTGTGC,-0.137
16,CGCTACGA,-0.0617
17,CGTGCCCC,-0.249
18,GCGAGCTA,0.0665
19,AGAGTAAA,-0.0681
20,ACGTTACT,0.205
21,CATTGTCG,0.132
22,TCAAAGCA,0.106
23,AACACAAA,0.0149
24,ACAGTCAA,0.0752

row,Sequence,PBM E-score
1,ATGCGTCC,-0.0187
2,GGACGCAA,-0.151
3,ATAGTAAC,0.0798
4,CAGGCTAG,-0.296
5,ACGCACGA,0.389
6,CTGTGAAA,0.134
7,ATAGTTCG,0.106
8,AAATTCCT,-0.165
9,CGTGTCAG,0.27
10,GAAACTAC,0.111
11,CCTCCAGC,-0.322
12,ATATACAT,0.109
13,AGGTATTG,0.0691
14,ACGACCTC,0.227
15,GAACACTA,0.0777
16,ATTGTTTA,0.206
17,CATTGTAG,-0.0418
18,CTTGTTCC,-0.284
19,GTACTATA,0.145
20,CCGAGACC,-0.279
21,TTAATCAA,0.0929
22,AACTTACG,0.134
23,CAGGAAAC,0.099
24,GTGAAAAC,0.138

row,Sequence,PBM E-score
1,AGCGAAGC,-0.103
2,CAAAAGCA,0.0336
3,AAGTTGAC,0.0221
4,CATCACCC,0.279
5,ACAGCGCT,-0.232
6,GGAGCAAC,-0.141
7,GGGAAACC,-0.12
8,AAATCCGG,-0.0659
9,GAACCGAA,0.0912
10,GGTGATAA,0.404
11,CGGGGCTC,-0.181
12,AGGTAAAT,-0.0502
13,CGAGGGGA,-0.09
14,CGTTAATC,0.163
15,CTAAACAA,-0.0606
16,ATCCCCCG,-0.0688
17,ACCAACCT,-0.0713
18,GCTATTAC,0.0967
19,ACAGTCTA,0.013
20,CCACTTGA,-0.162
21,TAGCACTA,0.0327
22,GGATGCCA,-0.0872
23,GGTCAGTA,-0.145
24,GGGAATAC,0.0905

row,Sequence,PBM E-score
1,ACACATAC,-0.181
2,AAAGTGGT,-0.0319
3,ATCAAGCC,-0.0375
4,CCGCGGGC,-0.252
5,CTAAATGA,0.191
6,AAGCCCTC,-0.108
7,TCATAAAA,0.149
8,ATTCATCG,0.0813
9,CGTGCCGC,0.0341
10,ACACTGAG,-0.0257
11,ACTTGAAG,-0.101
12,CAAAACGG,0.0219
13,GCTCTTCC,-0.24
14,AAACCGAC,-0.0139
15,ATCTCTGA,-0.0693
16,CCTAACCG,-0.0664
17,AATCCGAT,0.118
18,CAGAAACA,-0.0715
19,GCAAACTA,-0.0507
20,ACACCTAA,-0.0285
21,AGCGGTTC,-0.215
22,ACGGAATG,0.201

# An excerpt of these results, as tab-separated lines.
row	Sequence	PBM E-score
2	GCTTGCTA	-0.179
15	CTGTGTGC	-0.137
16	CGCTACGA	-0.0617
17	CGTGCCCC	-0.249
6	CTGTGAAA	0.134
9	CGTGTCAG	0.27
11	CCTCCAGC	-0.322
14	ACGACCTC	0.227
17	CATTGTAG	-0.0418
19	GTACTATA	0.145
22	AACTTACG	0.134
24	GTGAAAAC	0.138
10	GGTGATAA	0.404
11	CGGGGCTC	-0.181
15	CTAAACAA	-0.0606
16	ATCCCCCG	-0.0688
23	GGTCAGTA	-0.145
5	CTAAATGA	0.191
14	AAACCGAC	-0.0139
